No constants are given. Whether binding was seen depends on the method and setting. Some entries that bind do so weakly or less than the wild type. For some of these results: Where a sequence is shown, tags or fusion partners need not be part of it.
T1: full length human EGFL7 (expressed in CHO cells) (human) (UniProt Q9UHF1)
T1 sequence: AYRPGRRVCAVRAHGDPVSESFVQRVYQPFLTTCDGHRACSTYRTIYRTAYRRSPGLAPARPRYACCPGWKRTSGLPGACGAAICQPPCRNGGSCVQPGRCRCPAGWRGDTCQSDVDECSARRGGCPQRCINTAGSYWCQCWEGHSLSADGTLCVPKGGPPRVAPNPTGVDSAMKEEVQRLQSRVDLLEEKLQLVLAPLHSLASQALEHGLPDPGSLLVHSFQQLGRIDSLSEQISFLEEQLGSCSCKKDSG

T2: mouse EGFL7 (mEGFL7-CB-His) (mouse) (UniProt Q9QXT5)
T2 sequence: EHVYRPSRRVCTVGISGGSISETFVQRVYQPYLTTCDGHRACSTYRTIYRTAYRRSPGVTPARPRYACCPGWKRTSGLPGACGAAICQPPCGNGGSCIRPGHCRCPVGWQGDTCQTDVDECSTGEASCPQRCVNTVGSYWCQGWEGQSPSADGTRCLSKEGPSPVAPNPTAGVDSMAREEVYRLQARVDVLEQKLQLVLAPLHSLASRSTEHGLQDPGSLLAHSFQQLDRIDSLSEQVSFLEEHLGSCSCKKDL

B1: phage displaying 4F11.v1 Fab (Fab, V domains shown)
VH: EVQLVESGGGLVQPGGSLRLSCAASGHTFTTYGMSWVRQAPGKGLEWVGWINTHSGVPTYADDFKGRFTISRDNSKNTLYLQMNSLRAEDTAVYYCARLGSSAVDYWGQGTLVTVSS
VL: DIQMTQSPSSLSASVGDRVTITCKASQSVDYDGDSYMSWYQQKPGKAPKLLIYGASNLESGVPSRFSGSGSGTDFTLTISSLQPEDFATYYCQQNNEDPYTFGQGTKVEIKR
B2: 18F7.v1 IgG (18F7-graft) (antibody, V domains shown)
VH: EVQLVESGGGLVQPGGSLRLSCAASGYTFIDYYMNWVRQAPGKGLEWVGDINLDNGGTHYNQKFKGRFTISRDNSKNTLYLQMNSLRAEDTAVYYCAREGVYHDYDDYAMDYWGQGTLVTVSS
VL: DIQMTQSPSSLSASVGDRVTITCRTSQSLVHINGITYLHWYQQKPGKAPKLLIYRVSNRFSGVPSRFSGSGSGTDFTLTISSLQPEDFATYYCSQSTHVPLTFGQGTKVEIKR
B3: 18F7.v10 IgG (antibody, V domains shown)
VH: EVQLVESGGGLVQPGGSLRLSCAASGYTFIDYYMNWVRQAPGKGLEWVGDINLDNGGTHYNQKFKGRFTISRDKSKNTAYLQMNSLRAEDTAVYYCAREGVYHPYDDYAMDYWGQGTLVTVSS
VL: DIQMTQSPSSLSASVGDRVTITCRTSQSLVHINGITYLHWYQQKPGKAPKLLIYRVSNRFSGVPSRFSGSGSGTDFTLTISSLQPEDFATYYCSQSTHVPLTFGQGTKVEIK
B4: 18F7.v5 IgG (antibody, V domains shown)
VH: EVQLVESGGGLVQPGGSLRLSCAASGYTFIDYYMNWVRQAPGKGLEWVGDINLDNGGTHYNQKFKGRFTISRDKSKNTAYLQMNSLRAEDTAVYYCAREGVYHDYDDYAMDYWGQGTLVTVSS
VL: DIQMTQSPSSLSASVGDRVTITCRTSQSLVHINGITYLHWYQQKPGKAPKLLIYRVSNRGSGVPSRFSGSGSGTDFTLTISSLQPEDFATYYCSQSTHVPLTFGQGTKVEIK
B5: 18F7.v9 IgG (antibody, V domains shown)
VH: EVQLVESGGGLVQPGGSLRLSCAASGYTFIDKYMNWVRQAPGKGLEWVGDINLDNGGTHYNQKFKGRFTISRDKSKNTAYLQMNSLRAEDTAVYYCAREGVYHDYDDYAMDYWGQGTLVTVSS
VL: DIQMTQSPSSLSASVGDRVTITCRTSQSLVHINGITYLHWYQQKPGKAPKLLIYRVSNRFSGVPSRFSGSGSGTDFTLTISSLQPEDFATYYCSQSTHVPLTFGQGTKVEIK
B6: phage displaying 18F7-graft Fab (Fab, V domains shown)
VH: EVQLVESGGGLVQPGGSLRLSCAASGYTFIDYYMNWVRQAPGKGLEWVGDINLDNGGTHYNQKFKGRFTISRDNSKNTLYLQMNSLRAEDTAVYYCAREGVYHDYDDYAMDYWGQGTLVTVSS
VL: DIQMTQSPSSLSASVGDRVTITCRTSQSLVHINGITYLHWYQQKPGKAPKLLIYRVSNRFSGVPSRFSGSGSGTDFTLTISSLQPEDFATYYCSQSTHVPLTFGQGTKVEIKR
B7: 18F7.v3 IgG (antibody, name in Kabat numbering, V domains shown)
VH: EVQLVESGGGLVQPGGSLRLSCAASGYTFIDYYMNWVRQAPGKGLEWVGDINLDNGGTHYNQKFKGRFTISRDKSKNTAYLQMNSLRAEDTAVYYCAREGVYHDYDDYAMDYWGQGTLVTVSS
VL: DIQMTQSPSSLSASVGDRVTITCRTSQSLVHINGITYLHWYQQKPGKAPKLLIYRVSNRFSGVPSRFSGSGSGTDFTLTISSLQPEDFATYYCSQSTHVPLTFGQGTKVEIKR
B8: 18F7.v8 IgG (antibody, V domains shown)
VH: EVQLVESGGGLVQPGGSLRLSCAASGYTFIDYYMNWVRQAPGKGLEWVGDINLDNGGTHYNQKFKGRFTISRDKSKNTAYLQMNSLRAEDTAVYYCAREGVYHDYDDYAMDYWGQGTLVTVSS
VL: DIQMTQSPSSLSASVGDRVTITCRTSQSLVHINGITYLHWYQQKPGKAPKLLIYRVSNRFSGVPSRFSGSGSGTDFTLTISSLQPEDFATYYCVQSTHVPLTFGQGTKVEIK
B9: 18F7.v6 IgG (antibody, V domains shown)
VH: EVQLVESGGGLVQPGGSLRLSCAASGYTFIDYYMNWVRQAPGKGLEWVGDINLDNGGTHYNQKFKGRFTISRDKSKNTAYLQMNSLRAEDTAVYYCAREGVYHDYDDYAMDYWGQGTLVTVSS
VL: DIQMTQSPSSLSASVGDRVTITCRTSQSLVHINGITYLHWYQQKPGKAPKLLIYRVSNRFSGVPSRFSGSGSGTDFTLTISSLQPEDFATYYCGQSTHVPLTFGQGTKVEIKR
B10: 18F7.v7 IgG (antibody, V domains shown)
VH: EVQLVESGGGLVQPGGSLRLSCAASGYTFIDYYMNWVRQAPGKGLEWVGDINLDNGGTHYNQKFKGRFTISRDKSKNTAYLQMNSLRAEDTAVYYCAREGVYHDYDDYAMDYWGQGTLVTVSS
VL: DIQMTQSPSSLSASVGDRVTITCRTSQSLVHINGITYLHWYQQKPGKAPKLLIYRVSNRFSGVPSRFSGSGSGTDFTLTISSLQPEDFATYYCAQSTHVPLTFGQGTKVEIK
B11: 18F7.v2 IgG (antibody, name in Kabat numbering, V domains shown)
VH: EVQLVESGGGLVQPGGSLRLSCAASGYTFIDYYMNWVRQAPGKGLEWVGDINLDNGGTHYNQKFKGRFTISRDKSKNTLYLQMNSLRAEDTAVYYCAREGVYHDYDDYAMDYWGQGTLVTVSS
VL: DIQMTQSPSSLSASVGDRVTITCRTSQSLVHINGITYLHWYQQKPGKAPKLLIYRVSNRFSGVPSRFSGSGSGTDFTLTISSLQPEDFATYYCSQSTHVPLTFGQGTKVEIKR
B12: 18F7.v4 IgG (antibody, name in Kabat numbering, V domains shown)
VH: EVQLVESGGGLVQPGGSLRLSCAASGYTFIDYYMNWVRQAPGKGLEWVGDINLDNGGTHYNQKFKGRFTISRDKSKNTVYLQMNSLRAEDTAVYYCAREGVYHDYDDYAMDYWGQGTLVTVSS
VL: DIQMTQSPSSLSASVGDRVTITCRTSQSLVHINGITYLHWYQQKPGKAPKLLIYRVSNRFSGVPSRFSGSGSGTDFTLTISSLQPEDFATYYCSQSTHVPLTFGQGTKVEIKR

Key:
[1] = target: T1, full length human EGFL7 (expressed in CHO cells) (human); assay: phage binding to antigen immobilized on microtiter plate
[2] = target: T2, mouse EGFL7 (mEGFL7-CB-His) (mouse); assay: SPR (Biacore), IgG over immobilized mEGFL7
[3] = target: T2, mouse EGFL7 (mEGFL7-CB-His) (mouse); assay: SPR (Biacore), IgG over immobilized antigen

| Binder | binding [1] | binding [2] | binding [3] |
| --- | --- | --- | --- |
| B1 | binds | – | – |
| B2 | – | binds | binds |
| B3 | – | binds | binds |
| B4 | – | binds | binds |
| B5 | – | binds | binds |
| B6 | binds | – | – |
| B7 | – | binds | binds |
| B8 | – | binds | binds |
| B9 | – | binds | binds |
| B10 | – | binds | binds |
| B11 | – | binds | binds |
| B12 | – | binds | binds |
